# In PubChem BioAssay AID588590 (National Center for Advancing Translational Sciences (NCATS), 2011):
# Sequences of proteins named here, by UniProt entry; tags and fusion partners are left off. A change or cut given only in a name is not applied to a line headed by its entry.
# UniProt Q9UNA4: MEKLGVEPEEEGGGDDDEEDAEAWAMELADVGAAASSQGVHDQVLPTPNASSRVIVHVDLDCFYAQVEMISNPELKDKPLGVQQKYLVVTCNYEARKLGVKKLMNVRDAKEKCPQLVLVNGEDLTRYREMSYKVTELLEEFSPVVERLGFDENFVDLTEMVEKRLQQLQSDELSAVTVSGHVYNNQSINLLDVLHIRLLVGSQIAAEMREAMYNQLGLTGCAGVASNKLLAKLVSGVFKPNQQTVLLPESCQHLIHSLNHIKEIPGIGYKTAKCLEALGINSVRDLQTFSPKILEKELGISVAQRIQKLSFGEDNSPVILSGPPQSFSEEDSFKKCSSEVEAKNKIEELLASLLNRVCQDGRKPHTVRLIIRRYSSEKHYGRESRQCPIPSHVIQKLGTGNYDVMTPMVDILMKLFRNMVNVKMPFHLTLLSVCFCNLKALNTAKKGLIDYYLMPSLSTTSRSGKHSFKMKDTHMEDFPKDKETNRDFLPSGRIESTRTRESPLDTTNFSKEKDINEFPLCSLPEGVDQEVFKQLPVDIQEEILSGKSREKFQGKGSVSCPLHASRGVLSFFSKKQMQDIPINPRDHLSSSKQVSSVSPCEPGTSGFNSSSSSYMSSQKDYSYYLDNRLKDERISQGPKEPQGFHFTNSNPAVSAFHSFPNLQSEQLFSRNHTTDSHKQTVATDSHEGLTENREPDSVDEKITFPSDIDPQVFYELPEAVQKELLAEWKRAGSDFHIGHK
# Among all 390,000 compounds or so, about 4,000 (1%) were called active. The shares of active, inactive and inconclusive entries below differ from those in the screen. Calls follow the shape of the dose curve; as a rule, active = well fitted inhibition curve with a large enough effect; inconclusive = small, poorly fitted or top-dose-only effect, or another doubt; inactive = no such curve, though single readings can be large or run the other way. A potency beside an inconclusive call is a rough fit, not a confirmed value.
# Target: DNA polymerase iota (Homo sapiens) (UniProt Q9UNA4)
# Assay: qHTS for Inhibitors of Polymerase Iota
# Conditions: Pol iota fluorescent replication assay, 10 min; series mostly up to 115 µM; activity, negative = inhibition: at the top concentration
# How it was run: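 Pol iota at 10 nM preincubated 15 min with compounds at room temperature; reaction started with fluorescent substrate, 50 nM final. Fluorescence read kinetically at 0 and 10 min; buffer-only wells as negative control.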
# Potency is read from the fitted curve at half-maximal effect.
Compound,Potency,"activity, negative = inhibition"
CCOc1cccc(-c2nn3c(-c4cc(C)[nH]n4)nnc3s2)c1,"inconclusive: 44.7 µM [inhibitor, full curve, poor fit]",–
CC(=O)Nc1ccc2c(c1)nc1n2CCOC1,"inconclusive: 89.1 µM [inhibitor, single point]",–
Cc1cccc(N2CCN(C(=O)C(Cc3ccccc3)n3cccc3)CC2)c1C (stereo unspecified),"inconclusive: 17.8 µM [inhibitor, partial curve, poor fit]",–
CC1CCc2sc3c(c2C1)c(=O)n(CC(=O)O)c(=O)n3Cc1ccc(Cl)cc1 (stereo unspecified),"inconclusive: 89.1 µM [inhibitor, single point]",–
CSc1nc(NCCN(C)C)c2sc3nc(-c4ccco4)c4c(c3c2n1)CCC4,"inconclusive: 39.8 µM [inhibitor, single point]",–
O=C(Nc1ccccc1N1CCOCC1)c1ccccc1NS(=O)(=O)c1ccc(F)c(F)c1,"inconclusive: 39.8 µM [inhibitor, single point]",–
Cc1cccc(N2CCN(C(=O)C3CCCN(S(=O)(=O)c4cccc5nsnc45)C3)CC2)c1C (stereo unspecified),–,inactive: 8.38%
COc1ccc(N2CCN(C(=O)c3c(C)oc4ncnc(N5CCCCC5)c34)CC2)cc1,"inconclusive: 79.4 µM [inhibitor, single point]",–
CCn1c(=O)c2sccc2n2c(CCCC(=O)N3CCN(c4ccc(OC)cc4)CC3)nnc12,–,inactive: 19.5%
COc1ccc(CCNC(=O)Cn2nnc(-c3ccc(C(F)(F)F)cc3)n2)cc1OC,"inconclusive: 50.1 µM [inhibitor, partial curve]",–
CCCn1c(=O)c2sccc2n2c(CCCC(=O)N3CCN(c4ccccc4)CC3)nnc12,–,inactive: 22.4%
O=C(CSc1nc2nn(-c3ccccc3)c(=O)c-2c2n1CCCCC2)c1ccc(O)c(O)c1,active: 2 µM,–
CCOC(=O)c1c(NC(=O)c2ccoc2C)sc(C(=O)N(C)C)c1C,"inconclusive: 39.8 µM [inhibitor, single point]",–
Cc1cc(=O)oc2cc(OCC(=O)Nc3c(C)n(C)n(-c4ccccc4)c3=O)c(Cl)cc12,"inconclusive: 89.1 µM [inhibitor, single point]",–
C#CCNC(=O)C1=C[C@H](c2ccc3c(c2)OCO3)C[C@H](OCc2ccc(CO)cc2)O1,–,inactive: 33.8%
Cc1nc2ccn(Cc3cccnc3)c(=O)c2cc1C(=O)Nc1ccc(OC(F)(F)F)cc1,–,inactive: 20%
COc1cc(/C=C/c2ccc(O)cc2)cc(OC)c1,–,inactive: -8.26%
Cc1ccccc1NS(=O)(=O)c1ccc2[nH]cc(C(=O)N3CCCC3)c(=O)c2c1,"inconclusive: 79.4 µM [inhibitor, partial curve]",–
CCCn1c(CCC(=O)O)ccc1-c1ccccc1,–,inactive: 94%
COc1ccc2c(c1)oc(=O)c1c3ccccc3[nH]c21,–,inactive: -26.2%
Cc1cccc(CCn2c(=O)c3ccccc3n(Cc3cccc(F)c3)c2=O)c1,–,inactive: -10.6%
Cc1nc(CC(=O)c2c(C)cc(O)cc2O)cs1,"inconclusive: 89.1 µM [inhibitor, partial curve, poor fit]",–
CN1CCN(C2CCCCCC2)CC1,"inconclusive: 56.2 µM [inhibitor, partial curve, poor fit]",–

Compound,Potency,"activity, negative = inhibition"
C#CCOCCOCCOCCNc1nc(N2CCN(C(=O)Cn3cc(CCCCN)nn3)CC2)nc(N2CCN(C(=O)[C@H]([C@@H](C)CC)n3cc(CCCCN)nn3)CC2)n1,"inconclusive: 20 µM [inhibitor, partial curve, poor fit]",–
CC(=O)c1cccc(NC(=O)CCS(=O)(=O)c2cc(Br)cc3c2N(C(=O)C2CC2)CC3)c1,–,inactive: 16.3%
Cc1c(C)c2ccc(OCC(=O)N[C@@H](Cc3ccccc3)C(=O)O)cc2oc1=O,–,inactive: 17%
Cc1cc(C)c(C)c(S(=O)(=O)NC(C)C(=O)O)c1C (stereo unspecified),"inconclusive: 89.1 µM [inhibitor, single point]",–
CCCCCn1cnnc1SCC(=O)c1ccc2c(c1)OCO2,"inconclusive: 8.91 µM [inhibitor, single point]",–
CCOc1ccc(C(C)(O)CN2CCOCC2)cc1 (stereo unspecified),"inconclusive: 89.1 µM [inhibitor, partial curve, poor fit]",–
COc1cc(/C=N\Nc2nncn2N)ccc1OC(C)=O,active: 7.08 µM,–
Cc1ccc2nc(Nc3ccc(F)cc3)c3nncn3c2c1,–,inactive: 5.8%
O=C(COc1ccc(Br)cc1Cl)c1ccc[nH]1,–,inactive: 52%
COc1ccc(Nc2nc(N3CCOCC3)nc(N3CCOCC3)n2)cc1,–,inactive: -15.3%
CCc1nn(CC(=O)NCCC(C)C)c(=O)c2cc3c(OC)cccc3n12,"inconclusive: 3.16 µM [inhibitor, full curve]",–
Cc1cc(C)c(Cn2c(C)c(CNCCCc3ccccc3)c(C(=O)O)c2C)c(C)c1,"inconclusive: 89.1 µM [inhibitor, single point]",–
COc1ccc(Cl)cc1NS(=O)(=O)c1cc(-c2cc(C)no2)ccc1C,–,inactive: 5.99%
Cn1cc([N+](=O)[O-])c(C(=O)Nc2ccc(-c3nc4ccccc4o3)cc2)n1,"inconclusive: 28.2 µM [inhibitor, partial curve, poor fit]",–
Cc1cccc(NC(=O)c2cnn(-c3ccccc3)c2-n2cccc2)c1C,–,inactive: -32.2%
CCOC(=O)c1ccccc1NC(=O)CN(c1ccccc1OC)S(=O)(=O)c1ccc(C)cc1,–,inactive: 4.45%
Cc1ccc(N2C(=O)c3cccc4c([N+](=O)[O-])ccc(c34)C2=O)c2cccnc12,"inconclusive: 15.8 µM [inhibitor, partial curve, poor fit]",–
CN(C)Cc1ccc(O)c(CCc2ccccc2)n1,"inconclusive: 31.6 µM [inhibitor, single point]",–
COc1ccc(-c2nn(C)c3sc(C(=O)N4CCN(c5cccc(C)c5C)CC4)cc23)cc1OC,–,inactive: 19.7%
Fc1ccc(NC(=S)NN=C2CCCCCC2)cc1,"inconclusive: 89.1 µM [inhibitor, partial curve]",–
CC(C)Oc1ccc(C(=O)Nc2ccccc2N2CCCC2)cc1,"inconclusive: 31.6 µM [inhibitor, single point]",–
O=C1CC(N2CCC(c3nc4ccccc4o3)CC2)C(=O)N1 (stereo unspecified),–,inactive: 7.84%
C=CCNC(=O)C(C#N)c1nc2ccccc2nc1N1CCN(Cc2ccccc2)CC1 (stereo unspecified),"inconclusive: 0.282 µM [inhibitor, full curve, poor fit]",–

# One compound at a time, as listed above. Order of values: Potency | activity, negative = inhibition
# O=C(Nc1ccccc1N1CCOCC1)c1ccccc1NS(=O)(=O)c1ccc(F)c(F)c1 is entered as inconclusive: 39.8 µM [inhibitor, single point] | –
# O=C(COc1ccc(Br)cc1Cl)c1ccc[nH]1 is entered as – | inactive: 52%
# CSc1nc(NCCN(C)C)c2sc3nc(-c4ccco4)c4c(c3c2n1)CCC4 is entered as inconclusive: 39.8 µM [inhibitor, single point] | –
# Cc1cccc(N2CCN(C(=O)C(Cc3ccccc3)n3cccc3)CC2)c1C (stereo unspecified) is entered as inconclusive: 17.8 µM [inhibitor, partial curve, poor fit] | –
